# This is one part of the list.
# B1: CTMLA2 (Anopheles gambiae), Q7Q7F8 (protein)
# chain: MNLMITILIAVITVVRGDLSVPKTVDDILQQNPCLCPCKPFEEKEYFIPISRTSDWFGAVAYCHSVGMELAEVLNEDEARAMGEVIAEEESDSDDEFYWIGANDLGVQGTYRWALAGRPVLYSQWAAGEPNHARGENGQQPAERCVAVAMDKYEWNDFQCTQQKPFICQQFRKH
# Key:
# Experiment in all cases: glycan array binding signal (z-score within array); higher = stronger binding
# Details in all cases: glycan notation: IUPAC condensed, linker removed
# [1] = biological target: Fuc(a1-2)Gal
# Method in brief: (§1)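 The Consortium for Functional Glycomics database supplied 3228 glycan arrays, of which those lacking an available protein sequence were dropped. The binding signal, a within-array Z-score, was averaged across arrays of the same protein sequence and across linkers. Negative scores can be read as non-binding.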
# [2] = biological target: Fuc(a1-2)Gal(b1-3)GalNAc
# Method in brief: as §1
# [3] = biological target: Fuc(a1-2)Gal(b1-3)GalNAc(b1-3)Gal
# Method in brief: as §1
# [4] = biological target: Fuc(a1-2)Gal(b1-3)GalNAc(b1-3)Gal(a1-4)Gal(b1-4)Glc
# Method in brief: as §1
# [5] = biological target: Fuc(a1-2)Gal(b1-3)GalNAc(b1-4)[Neu5Ac(a2-3)]Gal(b1-4)Glc
# Method in brief: as §1
# [6] = biological target: Fuc(a1-2)Gal(b1-3)GlcNAc
# Method in brief: as §1
# [7] = biological target: Fuc(a1-2)Gal(b1-3)GlcNAc(b1-3)Gal(b1-4)Glc
# Method in brief: as §1
# [8] = biological target: Fuc(a1-2)Gal(b1-3)[Fuc(a1-4)]GlcNAc
# Method in brief: as §1
# [9] = biological target: Fuc(a1-2)Gal(b1-4)Glc
# Method in brief: as §1
# [10] = biological target: Fuc(a1-2)Gal(b1-4)Glc6S
# Method in brief: as §1
# [11] = biological target: Fuc(a1-2)Gal(b1-4)GlcNAc
# Method in brief: as §1
# [12] = biological target: Fuc(a1-2)Gal(b1-4)GlcNAc(b1-3)Gal(b1-4)GlcNAc
# Method in brief: as §1
# [13] = biological target: Fuc(a1-2)Gal(b1-4)GlcNAc(b1-3)Gal(b1-4)GlcNAc(b1-3)Gal(b1-4)GlcNAc
# Method in brief: as §1
# [14] = biological target: Fuc(a1-2)Gal(b1-4)GlcNAc6S
# Method in brief: as §1
# [15] = biological target: Fuc(a1-2)Gal(b1-4)[Fuc(a1-3)]GlcNAc
# Method in brief: as §1
# [16] = biological target: Fuc(a1-2)Gal(b1-4)[Fuc(a1-3)]GlcNAc(b1-3)Gal(b1-4)[Fuc(a1-3)]GlcNAc
# Method in brief: as §1
# [17] = biological target: Fuc(a1-2)Gal(b1-4)[Fuc(a1-3)]GlcNAc(b1-3)Gal(b1-4)[Fuc(a1-3)]GlcNAc(b1-3)Gal(b1-4)[Fuc(a1-3)]GlcNAc
# Method in brief: as §1
# [18] = biological target: Fuc(a1-2)Gal6S(b1-4)Glc
# Method in brief: as §1
# [19] = biological target: Fuc(a1-2)Gal6S(b1-4)Glc6S
# Method in brief: as §1
# [20] = biological target: Fuc(a1-2)Gal6S(b1-4)GlcNAc
# Method in brief: as §1
# [21] = biological target: Fuc(a1-2)GlcNAc
# Method in brief: as §1
# [22] = biological target: Fuc(a1-2)[Gal(a1-3)]Gal
# Method in brief: as §1
# [23] = biological target: Fuc(a1-2)[Gal(a1-3)]Gal(b1-3)GlcNAc
# Method in brief: as §1
# [24] = biological target: Fuc(a1-2)[Gal(a1-3)]Gal(b1-4)Glc
# Method in brief: as §1
# [25] = biological target: Fuc(a1-2)[Gal(a1-3)]Gal(b1-4)GlcNAc
# Method in brief: as §1
# [26] = biological target: Fuc(a1-2)[Gal(a1-3)]Gal(b1-4)[Fuc(a1-3)]GlcNAc
# Method in brief: as §1
# [27] = biological target: Fuc(a1-2)[Gal(a1-4)]Gal(b1-4)GlcNAc
# Method in brief: as §1
# [28] = biological target: Fuc(a1-2)[GalNAc(a1-3)]Gal
# Method in brief: as §1
# [29] = biological target: Fuc(a1-2)[GalNAc(a1-3)]Gal(b1-3)GlcNAc
# Method in brief: as §1
# [30] = biological target: Fuc(a1-2)[GalNAc(a1-3)]Gal(b1-4)Glc
# Method in brief: as §1
# [31] = biological target: Fuc(a1-2)[GalNAc(a1-3)]Gal(b1-4)GlcNAc
# Method in brief: as §1
# [32] = biological target: Fuc(a1-2)[GalNAc(a1-3)]Gal(b1-4)[Fuc(a1-3)]GlcNAc
# Method in brief: as §1
# [33] = biological target: Fuc(a1-2)[GalNAc(a1-4)]Gal(b1-4)GlcNAc
# Method in brief: as §1
# [34] = biological target: Fuc(a1-2)[GalNAc(b1-3)]Gal
# Method in brief: as §1
# [35] = biological target: Fuc(a1-3)GlcNAc
# Method in brief: as §1
# [36] = biological target: Fuc(a1-3)[Gal(b1-4)]Glc6S
# Method in brief: as §1
# [37] = biological target: Fuc(a1-3)[Gal(b1-4)]GlcNAc
# Method in brief: as §1
# [38] = biological target: Fuc(a1-3)[Gal(b1-4)]GlcNAc(b1-3)Gal(b1-3)[Fuc(a1-4)]GlcNAc
# Method in brief: as §1
# [39] = biological target: Fuc(a1-3)[Gal(b1-4)]GlcNAc(b1-4)Gal(b1-4)[Fuc(a1-3)]GlcNAc
# Method in brief: as §1
# [40] = biological target: Fuc(a1-3)[Gal(b1-4)]GlcNAc(b1-4)Gal(b1-4)[Fuc(a1-3)]GlcNAc(b1-4)Gal(b1-4)[Fuc(a1-3)]GlcNAc
# Method in brief: as §1
# [41] = biological target: Fuc(a1-3)[Gal(b1-4)]GlcNAc6S
# Method in brief: as §1
# [42] = biological target: Fuc(a1-3)[Gal3S(b1-4)]Glc6S
# Method in brief: as §1
# [43] = biological target: Fuc(a1-3)[Gal3S(b1-4)]GlcNAc
# Method in brief: as §1
# [44] = biological target: Fuc(a1-3)[Gal3S(b1-4)]GlcNAc6S
# Method in brief: as §1
# [45] = biological target: Fuc(a1-3)[GalNAc(b1-4)]GlcNAc
# Method in brief: as §1
# [46] = biological target: Fuc(a1-4)GlcNAc
# Method in brief: as §1
# [47] = biological target: Fuc(b1-3)GlcNAc
# Method in brief: as §1
# [48] = biological target: Gal(a1-2)Gal
# Method in brief: as §1
# [49] = biological target: Gal(a1-3)Gal
# Method in brief: as §1
# [50] = biological target: Gal(a1-3)Gal(b1-3)GlcNAc
# Method in brief: as §1
# [51] = biological target: Gal(a1-3)Gal(b1-4)Glc
# Method in brief: as §1
# [52] = biological target: Gal(a1-3)Gal(b1-4)GlcNAc
# Method in brief: as §1
# [53] = biological target: Gal(a1-3)Gal(b1-4)[Fuc(a1-3)]GlcNAc
# Method in brief: as §1
# [54] = biological target: Gal(a1-3)GalNAc
# Method in brief: as §1
# [55] = biological target: Gal(a1-3)[Gal(a1-4)]Gal(b1-4)GlcNAc
# Method in brief: as §1
# [56] = biological target: Gal(a1-4)Gal(b1-4)Glc
# Method in brief: as §1
# [57] = biological target: Gal(a1-4)Gal(b1-4)GlcNAc
# Method in brief: as §1
# [58] = biological target: Gal(a1-4)GlcNAc
# Method in brief: as §1
# [59] = biological target: Gal(a1-6)Glc
# Method in brief: as §1
# [60] = biological target: Gal(b1-2)Gal
# Method in brief: as §1
# [61] = biological target: Gal(b1-3)Gal
# Method in brief: as §1
# [62] = biological target: Gal(b1-3)GalNAc
# Method in brief: as §1
# [63] = biological target: Gal(b1-3)GalNAc(b1-3)Gal(a1-4)Gal(b1-4)Glc
# Method in brief: as §1
# [64] = biological target: Gal(b1-3)GalNAc(b1-4)Gal(b1-4)Glc
# Method in brief: as §1
# [65] = biological target: Gal(b1-3)GalNAc(b1-4)[Neu5Ac(a2-3)]Gal(b1-4)Glc
# Method in brief: as §1
# [66] = biological target: Gal(b1-3)GlcNAc
# Method in brief: as §1
# [67] = biological target: Gal(b1-3)GlcNAc(b1-3)Gal(b1-3)GlcNAc
# Method in brief: as §1
# [68] = biological target: Gal(b1-3)GlcNAc(b1-3)Gal(b1-4)Glc
# Method in brief: as §1
# [69] = biological target: Gal(b1-3)GlcNAc(b1-3)Gal(b1-4)GlcNAc
# Method in brief: as §1
# [70] = biological target: Gal(b1-3)[Fuc(a1-4)]GlcNAc
# Method in brief: as §1
# [71] = biological target: Gal(b1-3)[Fuc(a1-4)]GlcNAc(b1-3)Gal(b1-3)[Fuc(a1-4)]GlcNAc
# Method in brief: as §1
# [72] = biological target: Gal(b1-3)[Fuc(a1-4)]GlcNAc(b1-3)Gal(b1-4)GlcNAc
# Method in brief: as §1
# [73] = biological target: Gal(b1-3)[Fuc(a1-4)]GlcNAc(b1-3)Gal(b1-4)[Fuc(a1-3)]GlcNAc
# Method in brief: as §1
# [74] = biological target: Gal(b1-3)[GlcNAc(b1-6)]GalNAc
# Method in brief: as §1
# [75] = biological target: Gal(b1-3)[Neu5Ac(a2-6)]GalNAc
# Method in brief: as §1
binder,measurement,setting,value
B1,glycan array binding signal (z-score),[1],0.854
same,glycan array binding signal (z-score),[2],0.204
same,glycan array binding signal (z-score),[3],0.243
same,glycan array binding signal (z-score),[4],0.099
same,glycan array binding signal (z-score),[5],-0.235
same,glycan array binding signal (z-score),[6],-0.124
same,glycan array binding signal (z-score),[7],-0.357
same,glycan array binding signal (z-score),[8],0.014
same,glycan array binding signal (z-score),[9],0.14
same,glycan array binding signal (z-score),[10],-0.485
same,glycan array binding signal (z-score),[11],-0.282
same,glycan array binding signal (z-score),[12],-0.253
same,glycan array binding signal (z-score),[13],0.264
same,glycan array binding signal (z-score),[14],-0.569
same,glycan array binding signal (z-score),[15],-0.269
same,glycan array binding signal (z-score),[16],-0.028
same,glycan array binding signal (z-score),[17],-0.09
same,glycan array binding signal (z-score),[18],-0.575
same,glycan array binding signal (z-score),[19],-0.492
same,glycan array binding signal (z-score),[20],-0.3
same,glycan array binding signal (z-score),[21],0.212
same,glycan array binding signal (z-score),[22],-0.094
same,glycan array binding signal (z-score),[23],0.359
same,glycan array binding signal (z-score),[24],-0.278
same,glycan array binding signal (z-score),[25],-0.574
same,glycan array binding signal (z-score),[26],0.265
same,glycan array binding signal (z-score),[27],-0.275
same,glycan array binding signal (z-score),[28],-0.171
same,glycan array binding signal (z-score),[29],-0.004
same,glycan array binding signal (z-score),[30],-0.519
same,glycan array binding signal (z-score),[31],-0.194
same,glycan array binding signal (z-score),[32],0.192
same,glycan array binding signal (z-score),[33],0.159
same,glycan array binding signal (z-score),[34],-0.102
same,glycan array binding signal (z-score),[35],0.239
same,glycan array binding signal (z-score),[36],-0.163
same,glycan array binding signal (z-score),[37],-0.113
same,glycan array binding signal (z-score),[38],-0.022
same,glycan array binding signal (z-score),[39],0.419
same,glycan array binding signal (z-score),[40],-0.011
same,glycan array binding signal (z-score),[41],-0.185
same,glycan array binding signal (z-score),[42],0.247
same,glycan array binding signal (z-score),[43],-0.137
same,glycan array binding signal (z-score),[44],0.052
same,glycan array binding signal (z-score),[45],-0.194
same,glycan array binding signal (z-score),[46],-0.448
same,glycan array binding signal (z-score),[47],-0.06
same,glycan array binding signal (z-score),[48],-0.078
same,glycan array binding signal (z-score),[49],-0.152
same,glycan array binding signal (z-score),[50],-0.256
same,glycan array binding signal (z-score),[51],-0.157
same,glycan array binding signal (z-score),[52],-0.283
same,glycan array binding signal (z-score),[53],-0.225
same,glycan array binding signal (z-score),[54],0.077
same,glycan array binding signal (z-score),[55],0.065
same,glycan array binding signal (z-score),[56],-0.339
same,glycan array binding signal (z-score),[57],0.095
same,glycan array binding signal (z-score),[58],0.889
same,glycan array binding signal (z-score),[59],-0.285
same,glycan array binding signal (z-score),[60],-0.133
same,glycan array binding signal (z-score),[61],-0.195
same,glycan array binding signal (z-score),[62],-0.36
same,glycan array binding signal (z-score),[63],0.443
same,glycan array binding signal (z-score),[64],0.033
same,glycan array binding signal (z-score),[65],-0.324
same,glycan array binding signal (z-score),[66],-0.057
same,glycan array binding signal (z-score),[67],-0.63
same,glycan array binding signal (z-score),[68],4.14
same,glycan array binding signal (z-score),[69],-0.58
same,glycan array binding signal (z-score),[70],-0.304
same,glycan array binding signal (z-score),[71],-0.527
same,glycan array binding signal (z-score),[72],-0.377
same,glycan array binding signal (z-score),[73],-0.224
same,glycan array binding signal (z-score),[74],-0.194
same,glycan array binding signal (z-score),[75],-0.277

# 3 entries drawn at random from the list so far:
binder,measurement,setting,value
B1,glycan array binding signal (z-score),[33],0.159
same,glycan array binding signal (z-score),[19],-0.492
same,glycan array binding signal (z-score),[44],0.052
